From patent US9393244B2, “Increasing parkin activity by administering a deubiquitinating enzyme inhibitor” (Georgetown University, priority 2013, dated 2016)
For some of these results: For at least one compound, name, drawing or mass did not settle the structure. Some entries share one result that the patent states for a list of compounds. Some compounds share one range, which may span the group rather than tell each member.

Legend:
parkin [1] = assay: Western blot of STEN (soluble) extracts of M17 cells, parkin level; format: cell-based, human; settings: M17 cells transfected with 3 μg lentiviral plasmids for 48 hr; relative to actin compared to USP13; p<0.05, N=4
Protocol: (§1) To further determine whether USP13 targets parkin, M17 cells were transfected with 3 μg lentiviral plasmids containing parkin, USP13 or different shRNA USP13 clones (FIG. 27A) for 48 hr. The expression level of the shRNAs was determined by routine stereology of the GFP and VS-tagged lentivirus to ensure equal expression of lentiviral plasmids. USP13 gene expression level is verified by PCR. Co-expression of USP13 and parkin led to an increase (134%) in parkin level compared to parkin alone (FIG. 27A, 1st blot, N=4), but shRNA expression reduced USP13 and parkin levels relative to actin (FIG. 27A). […] To ascertain that manipulation of USP13 expression affects protein clearance, the activity of the 20S proteasome activity was measured using chymotrypsin-like assays. Proteasome activity was inhibited after 2 hr treatment with 20 μM proteasome inhibitor MG132 compared to control (LacZ) or parkin alone (FIG. 27B, N=4).

USP13 = assay: Western blot of STEN (soluble) extracts of M17 cells, USP13 level; format: cell-based, human; settings: M17 cells transfected with 3 μg lentiviral plasmids for 48 hr; relative to actin compared to USP13; p<0.05, N=4
Protocol: as §1

[2] = system: parkin and ubiquitin specific peptidase 10 (USP10); assay: Proximity Ligation Assay (PLA) in situ on mouse brain sections, parkin-USP10; format: in vivo; settings: 10 mg/kg Nilotinib or 5 mg/kg Bosutinib daily for 3 weeks vs DMSO
[3] = system: parkin and ubiquitin specific peptidase 13 (USP13); assay: Proximity Ligation Assay (PLA) in situ on mouse brain sections, parkin-USP13; format: in vivo; settings: 10 mg/kg Nilotinib or 5 mg/kg Bosutinib daily for 3 weeks vs DMSO
parkin [4] = assay: Subcellular fractionation of brain (AV-10, AV-20, lysosomes) and mouse specific ELISA for parkin; format: in vivo; settings: Transgenic 3×APP mice; IP 10 mg/kg Nilotinib or 5 mg/kg Bosutinib once a day for 3 weeks; FIG. 14

Row | Compound | reduction of parkin levels (parkin [1]) | reduction of USP13 level (USP13) | parkin-USP10 interaction (PLA) ([2]; A53T mice, FIG. 8) | parkin-USP10 interaction (PLA) ([2]; Tg-APP mice, FIG. 7) | parkin-USP13 interaction (PLA) ([3]; A53T mice, FIG. 8) | parkin-USP13 interaction (PLA) ([3]; Tg-APP mice, FIG. 7) | parkin activity (parkin [4])
1 | F02: USP13 shRNA clone, 5′ TCTTGTAGACCCTGTCGCC 3′ (SEQ ID NO: 4) | 55-70% | 60-70% | – | – | – | – | –
2 | F04: USP13 shRNA clone, 5′AACTTAGTCATCTGTGTGT 3′ (SEQ ID NO: 2) | 55-70% | 60-70% | – | – | – | – | –
3 | E07: USP13 shRNA clone, 5′ TTTCCAGTGAAGTACACAG 3′ (SEQ ID NO: 1) | 55-70% | 60-70% | – | – | – | – | –
4 | COc1cc(Nc2c(C#N)cnc3cc(OCCCN4CCN(C)CC4)c(OC)cc23)c(Cl)cc1Cl [Bosutinib] | – | – | increases the interaction | increases the interaction | increases the interaction | increases the interaction | increases parkin activity
5 | F03: USP13 shRNA clone, 5′ TTTCTCGCAGGTCGCATCT 3′ (SEQ ID NO: 3) | 55-70% | 60-70% | – | – | – | – | –
